Source: PubChem BioAssay AID504774 (Drosophila RNAi Screening Center, 2011)
Screen: 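Genes required for cells to withstand methyl methanesulphonate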 (primary screen). Cell system: Drosophila Kc167 cells. Reagents: long dsRNA against Drosophila genes, about 0.25 µg dsRNA per well. Timing: about 6 days: 3 days knock-down, then 3 days with or without MMS. Conditions: methyl methanesulphonate 0.004% (w/v) for 3 days after knock-down. Measured: 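ATP-dependent luminescence as a measure of live cells in MMS-exposed wells, quantile normalised within each plate, with replicate values also given as a mean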. Reading the numbers: mean viability with MMS and viability with MMS: higher = more surviving cells after MMS.
In all, the deposit lists about 23,000 reagents; below is a random part of those with a known target gene and a result. 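Values are quantile-normalised luminescence on an arbitrary scale; higher means more cells surviving MMS.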 Names joined by + are all predicted targets of the reagent. Further read-outs or replicates are left out here. No sequences are given here.

Gene | amplicon | mean viability with MMS | viability with MMS, replicate 1
CG7492 | DRSC10855 | 3.46e6 | 3.91e6
CG9667 | DRSC16535 | 3.39e6 | 3.92e6
CG10650 | DRSC02085 | 3.65e6 | 4.19e6
fog | DRSC20646 | 3.54e6 | 4.03e6
CG5323 | DRSC06929 | 3.70e6 | 4.18e6
Gr28b | DRSC02291 | 3.44e6 | 4.01e6
Gr28b | DRSC02292 | 3.42e6 | 3.86e6
Tmep | DRSC08215 | 3.61e6 | 4.13e6
beat-Ia | DRSC03489 | 3.43e6 | 3.88e6
Spt3 | DRSC15465 | 3.31e6 | 3.79e6
LManV | DRSC03223 | 3.47e6 | 3.97e6
CG42240 | DRSC18097 | 3.23e6 | 3.94e6
CR15821 | DRSC08481 | 3.60e6 | 4.02e6
RPA1 | DRSC16830 | 3.44e6 | 3.87e6
eIF3h | DRSC01995 | 2.90e6 | 3.25e6
sa | DRSC11649 | 3.59e6 | 4.17e6
fh | DRSC18430 | 3.43e6 | 3.92e6
simj | DRSC10942 | 3.44e6 | 3.96e6
Hcf | DRSC17143 | 3.39e6 | 3.94e6
hzg | DRSC10549 | 3.35e6 | 3.80e6
Ir11a | DRSC19699 | 3.46e6 | 3.92e6
CG12861 | DRSC06201 | 3.54e6 | 4.03e6
CG12861 | DRSC21960 | 3.59e6 | 4.05e6
CG10822 | DRSC06005 | 3.48e6 | 3.90e6
Rad1 + Sws1 | DRSC00778 | 3.49e6 | 3.86e6
Men-b | DRSC16736 | 3.78e6 | 4.41e6
VhaPPA1-2 | DRSC16176 | 3.57e6 | 3.86e6
CG12865 (retired record) | DRSC06205 | 3.71e6 | 4.13e6
CG15296 | DRSC17983 | 3.46e6 | 3.99e6
Tmtc2 | DRSC00272 | 3.60e6 | 4.02e6
RpLP0 | DRSC11878 | 3.26e6 | 3.67e6
RpLP0 | DRSC22110 | 2.70e6 | 3.73e6
prod | DRSC07667 | 3.56e6 | 4.16e6
CG4596 | DRSC15608 | 3.53e6 | 4.01e6
Spn47C | DRSC07030 | 3.57e6 | 4.15e6
CG15729 (retired record) | DRSC19695 | 3.48e6 | 3.91e6
CARPA | DRSC17905 | 3.37e6 | 3.67e6
CARPA | DRSC21633 | 3.55e6 | 4.04e6
abs | DRSC12372 | 3.45e6 | 3.94e6
Prp16 | DRSC19538 | 3.59e6 | 3.70e6
Prp16 | DRSC19542 | 3.44e6 | 3.91e6
Mst27D | DRSC00967 | 3.26e6 | 3.70e6
CG31626 + CG8677 | DRSC21844 | 3.69e6 | 3.99e6
NAAT1 | DRSC18300 | 3.67e6 | 4.11e6
Papst2 | DRSC10924 | 3.74e6 | 4.26e6
CG31036 | DRSC15055 | 3.50e6 | 3.87e6
CG31036 | DRSC15057 | 3.53e6 | 4.01e6
eIF3g2 | DRSC14275 | 3.57e6 | 4.23e6
Nadk1b | DRSC05432 | 3.60e6 | 4.19e6
Nadk1b | DRSC06964 | 3.79e6 | 4.20e6
Nadk1b | DRSC06965 | 3.47e6 | 4.04e6
CG12971 | DRSC11681 | 3.63e6 | 4.13e6
nenya | DRSC13838 | 3.58e6 | 4.01e6
CG14177 (retired record) | DRSC10176 | 3.75e6 | 4.16e6
Cpsf100 | DRSC14146 | 3.49e6 | 3.92e6
CG18568 | DRSC06768 | 3.57e6 | 4.18e6
CG5756 | DRSC06950 | 3.63e6 | 4.06e6
CG33459 | DRSC05615 | 3.42e6 | 3.94e6
Ir52a | DRSC06262 | 3.53e6 | 3.95e6
Pis | DRSC20178 | 3.65e6 | 4.06e6
Blos2 | DRSC10147 | 3.64e6 | 4.11e6
Vha68-3 | DRSC02809 | 3.40e6 | 3.89e6
CG8043 | DRSC16368 | 3.71e6 | 4.25e6
CG33235 | DRSC19641 | 3.61e6 | 4.06e6
nrm | DRSC11597 | 3.35e6 | 3.88e6
nrm | DRSC11599 | 3.34e6 | 3.83e6
nrm | DRSC11897 | 3.45e6 | 3.89e6
CG3527 | DRSC18307 | 3.44e6 | 3.93e6

Reformatted: 10 of the entries above.
| Gene | amplicon | mean viability with MMS | viability with MMS, replicate 1 |
| --- | --- | --- | --- |
| CG5323 | DRSC06929 | 3.70e6 | 4.18e6 |
| Gr28b | DRSC02291 | 3.44e6 | 4.01e6 |
| Gr28b | DRSC02292 | 3.42e6 | 3.86e6 |
| Tmep | DRSC08215 | 3.61e6 | 4.13e6 |
| beat-Ia | DRSC03489 | 3.43e6 | 3.88e6 |
| Spt3 | DRSC15465 | 3.31e6 | 3.79e6 |
| LManV | DRSC03223 | 3.47e6 | 3.97e6 |
| CG42240 | DRSC18097 | 3.23e6 | 3.94e6 |
| CR15821 | DRSC08481 | 3.60e6 | 4.02e6 |
| RPA1 | DRSC16830 | 3.44e6 | 3.87e6 |
